Measured values as given in article PMC12521646.
No constants are given. Whether binding was seen depends on the method and setting. Some entries that bind do so weakly or less than the wild type.

Molecular target: Pma1, plasma membrane H+-ATPase (proton pump) of Candida glabrata (Candida glabrata (endogenous in CBS138)) (UniProt Q6FXU5)
Test: cryo-electron tomography; tomograms of vitrified crude plasma membranes from C. glabrata spheroplasts ruptured by hypotonic shock, in PBS; Talos Arctica 200 kV; particles assigned by size and morphology; untreated or caspofungin-treated spheroplasts

B1: Pma1, plasma membrane H+-ATPase (proton pump) of Candida glabrata (protein, UniProt Q6FXU5 1-902)
chain: MSDVESNNEKPPQDVYEDEEMSEDDDIDALIEELQSHHGMGDDDDSEDEGHHTGSARVVPEEYLQTDPSYGLTSDEVAHRRKKYGLNQMADERESMIVKFVMFFVGPIQFVMEAAAILAAGLSDWVDFGVICGLLMLNACVGFIQEFQAGSIVDELKKTLANVAVVIRDGQLVEVPANEVVPGDILQLEDGTIIPADGRLVTENCFLQVDQSAITGESLAVDKGYGDQTFSSSTVKRGEAFMVVTATGDNTFVGRAAALVNKASGGQGHFTEVLNGIGILLLVLVIVTLLGVWAACFYRTDNIVKILRFTLGITIIGVPVGLPAVVTTTMAVGAAYLAKKQAIVQKLSAIESLAGVEILCSDKTGTLTKNKLSLHEPYTVEGVSADDLMLTACLAASRKKKGLDAIDKAFLKSLINYPKAKDALTKYKVIEFHPFDPVSKKVTAVVESPEGERIVCVKGAPLFVLKTVEEDHPIPEDVHENYENKVAELASRGFRALGVARKRGEGHWEILGVMPCMDPPRDDTAETVNEARRLGLRVKMLTGDAVGIAKETCRQLGLGTNIYNAERLGLGGGGDMPGSELADFVENADGFAEVFPQHKYKVVEILQNRGYLVAMTGDGVNDAPSLKKADTGIAVEGASDAARSAADIVFLAPGLSAIIDALKTSRQIFHRMYSYVVYRIALSLHLELFLGLWIIILNHSLDIELIVFIAIFADVATLAIAYDNAPFSQTPVKWNLPRLWGMSIILGIVLAIGTWICLTTMFLPRGGIIQNFGSIDGVLFLQISLTENWLIFVTRAVGPFWSSIPSWQLAGAVFAVDIIATMFTLFGWFSQNWTDIVTVVKIYIWSIGVFCVLGGFYYIMSESVVFDRLMNGKPLKEEKSTRSVEDFLAAMQRVSTQHEKEN
  binding: binds
